Values of other authors, collected in patent publication US8283322B2, “Formulations for nonsurgical exogenous crosslink therapy” (Orthopeutics, LP, priority 2008, dated 2012).
Some entries share one result that the patent states for a list of compounds.

Details: in water; proposed values; cited from earlier work

Compound: CCN=C=NCCCN(C)C.Cl [EDC, 1-ethyl-3-[3-dimethylaminopropyl]carbodiimide hydrochloride]
- max solubility: 2000 to 3000 mM
